This data set can be described thus: in vitro. To be noted: human, Caco-2.

Molecule `CC(C)NCC(O)COc1ccc(CC(N)=O)cc1` (stereo not shown) [atenolol] registered a Papp of 0.542 ×10⁻⁶ cm/s.

For orientation: Papp means a coefficient for how fast a substance crosses the barrier. Low readings indicate slow passage, high ones fast passage.

For the origin of these results see article PMC12044326 (Clinical Pharmacology in Drug Development, 2025).
